This is one part of the list. Residues, ends and D or L forms follow the SMILES beside them. *: point of attachment. Cbz = O=C(OCc1ccccc1)*
Assays:
Experiment in all cases: log2 fold change, soluble protein after heating vs DMSO (PISA); higher = thermal stabilisation; K562 cells, 10 uM, 30 min; active = over 0.2 and 3.5 SD of the protein, either way, in both replicates (recomputed)
IRAK-1-4 Inhibitor I = compound: C1COCCN1CCN2C3=CC=CC=C3N=C2NC(=O)C4=CC(=CC=C4)[N+](=O)[O-] [IRAK-1-4 Inhibitor I]
Summary of the method: (§1)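 Values are thermal stability changes relative to control samples and are taken from duplicates. They are stated as log2 fold changes. Before quantification by TMTpro 16plex LC-MS/MS with equalised channel sums, K562 cells at 2×10^6 cells/mL were treated with 10 μM compound for 30 min, heated in aliquots for 3 min across 48°C-58°C, pooled, extracted in PBS with 0.5% NP-40 at 4°C, and centrifuged at 21,000xg for 90 min to give the soluble supernatant.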

Amino acid sequences for entries named in this document (tags omitted). A change or cut given only in a name is not applied to a line headed by its entry.
UniProt Q8NB16: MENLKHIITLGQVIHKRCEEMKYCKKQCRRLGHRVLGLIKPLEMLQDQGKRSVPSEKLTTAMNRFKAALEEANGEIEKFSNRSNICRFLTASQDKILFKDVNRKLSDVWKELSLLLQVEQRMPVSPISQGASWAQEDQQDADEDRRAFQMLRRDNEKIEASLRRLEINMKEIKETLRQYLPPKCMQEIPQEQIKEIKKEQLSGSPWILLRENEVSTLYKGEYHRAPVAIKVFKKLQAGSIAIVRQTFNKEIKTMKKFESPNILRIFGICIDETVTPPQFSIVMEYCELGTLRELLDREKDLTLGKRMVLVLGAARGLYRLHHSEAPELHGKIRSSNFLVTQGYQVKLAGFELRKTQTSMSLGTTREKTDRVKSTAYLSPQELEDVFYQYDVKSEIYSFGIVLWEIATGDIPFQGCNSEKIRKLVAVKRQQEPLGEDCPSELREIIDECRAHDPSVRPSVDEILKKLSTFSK
UniProt Q96BX8: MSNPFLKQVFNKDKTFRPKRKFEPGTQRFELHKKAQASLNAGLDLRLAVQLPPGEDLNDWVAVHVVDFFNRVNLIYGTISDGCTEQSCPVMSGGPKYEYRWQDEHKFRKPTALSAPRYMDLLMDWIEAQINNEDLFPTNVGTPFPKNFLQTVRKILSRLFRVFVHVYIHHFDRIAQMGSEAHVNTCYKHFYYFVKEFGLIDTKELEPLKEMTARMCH
UniProt Q8NBR6: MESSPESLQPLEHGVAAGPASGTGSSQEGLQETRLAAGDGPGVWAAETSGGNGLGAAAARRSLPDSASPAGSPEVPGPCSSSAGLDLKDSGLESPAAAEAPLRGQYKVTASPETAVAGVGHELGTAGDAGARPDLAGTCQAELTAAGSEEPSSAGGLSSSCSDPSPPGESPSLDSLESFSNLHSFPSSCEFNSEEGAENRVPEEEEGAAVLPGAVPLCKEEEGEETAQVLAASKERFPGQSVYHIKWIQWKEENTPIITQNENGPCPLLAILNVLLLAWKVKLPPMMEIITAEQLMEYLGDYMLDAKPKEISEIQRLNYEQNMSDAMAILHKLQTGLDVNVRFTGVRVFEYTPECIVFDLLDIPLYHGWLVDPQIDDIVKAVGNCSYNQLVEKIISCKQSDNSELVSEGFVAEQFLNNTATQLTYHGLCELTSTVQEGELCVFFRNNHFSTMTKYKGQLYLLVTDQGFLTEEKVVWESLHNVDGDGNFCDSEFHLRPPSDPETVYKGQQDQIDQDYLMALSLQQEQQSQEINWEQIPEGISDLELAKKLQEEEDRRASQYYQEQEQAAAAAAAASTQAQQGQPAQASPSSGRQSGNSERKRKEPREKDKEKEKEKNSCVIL
UniProt Q13201: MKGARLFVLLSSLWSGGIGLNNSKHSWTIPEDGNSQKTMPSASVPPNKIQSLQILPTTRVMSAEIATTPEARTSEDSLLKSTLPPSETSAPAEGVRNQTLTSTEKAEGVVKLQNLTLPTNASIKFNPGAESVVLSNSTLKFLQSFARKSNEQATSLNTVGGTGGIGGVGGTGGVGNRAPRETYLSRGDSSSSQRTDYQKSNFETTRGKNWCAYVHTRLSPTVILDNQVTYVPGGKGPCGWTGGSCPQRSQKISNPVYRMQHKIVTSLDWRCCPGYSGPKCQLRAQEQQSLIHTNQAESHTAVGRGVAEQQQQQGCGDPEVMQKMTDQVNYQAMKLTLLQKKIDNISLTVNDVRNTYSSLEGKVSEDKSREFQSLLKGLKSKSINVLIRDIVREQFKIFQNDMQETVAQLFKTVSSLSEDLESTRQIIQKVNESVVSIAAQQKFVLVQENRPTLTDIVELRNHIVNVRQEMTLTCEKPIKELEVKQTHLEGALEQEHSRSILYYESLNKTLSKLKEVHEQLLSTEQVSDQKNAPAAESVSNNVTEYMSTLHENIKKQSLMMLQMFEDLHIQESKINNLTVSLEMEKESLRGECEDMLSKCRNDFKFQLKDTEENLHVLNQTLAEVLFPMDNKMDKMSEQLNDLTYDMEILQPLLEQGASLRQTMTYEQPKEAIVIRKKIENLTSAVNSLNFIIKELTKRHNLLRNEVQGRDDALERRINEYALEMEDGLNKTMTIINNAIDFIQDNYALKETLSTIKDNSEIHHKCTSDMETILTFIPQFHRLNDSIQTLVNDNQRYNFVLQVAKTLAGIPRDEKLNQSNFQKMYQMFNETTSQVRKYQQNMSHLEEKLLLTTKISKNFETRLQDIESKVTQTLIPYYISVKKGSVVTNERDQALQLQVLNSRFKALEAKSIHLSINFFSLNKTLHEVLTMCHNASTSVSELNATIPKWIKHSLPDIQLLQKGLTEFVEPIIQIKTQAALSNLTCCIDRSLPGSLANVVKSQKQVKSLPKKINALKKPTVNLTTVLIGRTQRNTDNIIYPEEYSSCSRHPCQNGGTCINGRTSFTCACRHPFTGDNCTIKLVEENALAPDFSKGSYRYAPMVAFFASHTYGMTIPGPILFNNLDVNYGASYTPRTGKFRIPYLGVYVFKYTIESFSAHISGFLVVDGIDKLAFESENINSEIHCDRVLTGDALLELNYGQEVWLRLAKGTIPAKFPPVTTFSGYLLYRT
UniProt Q6NTE8: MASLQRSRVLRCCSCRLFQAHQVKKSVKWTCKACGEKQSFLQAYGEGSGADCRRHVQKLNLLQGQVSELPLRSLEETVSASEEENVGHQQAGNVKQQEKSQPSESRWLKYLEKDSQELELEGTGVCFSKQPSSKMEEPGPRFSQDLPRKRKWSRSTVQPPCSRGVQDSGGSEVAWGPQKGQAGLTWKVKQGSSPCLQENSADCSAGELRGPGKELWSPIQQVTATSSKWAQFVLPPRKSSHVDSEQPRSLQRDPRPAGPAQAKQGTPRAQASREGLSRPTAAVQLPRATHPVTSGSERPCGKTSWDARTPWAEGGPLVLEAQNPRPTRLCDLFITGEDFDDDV
UniProt Q9Y605: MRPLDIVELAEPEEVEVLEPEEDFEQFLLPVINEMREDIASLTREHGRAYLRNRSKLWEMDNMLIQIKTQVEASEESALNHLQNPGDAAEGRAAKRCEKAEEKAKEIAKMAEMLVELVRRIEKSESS
UniProt Q9BVC4, whole entry, looked up: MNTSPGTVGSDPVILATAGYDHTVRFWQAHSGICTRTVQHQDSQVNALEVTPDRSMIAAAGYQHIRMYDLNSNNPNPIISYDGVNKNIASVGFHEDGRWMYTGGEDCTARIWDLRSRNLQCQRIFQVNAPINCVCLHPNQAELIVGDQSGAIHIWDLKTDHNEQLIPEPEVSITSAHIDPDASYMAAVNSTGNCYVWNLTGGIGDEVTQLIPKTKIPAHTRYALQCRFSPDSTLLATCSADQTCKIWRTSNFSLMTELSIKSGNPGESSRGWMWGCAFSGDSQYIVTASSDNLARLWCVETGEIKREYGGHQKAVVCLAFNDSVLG
UniProt Q9H3L0: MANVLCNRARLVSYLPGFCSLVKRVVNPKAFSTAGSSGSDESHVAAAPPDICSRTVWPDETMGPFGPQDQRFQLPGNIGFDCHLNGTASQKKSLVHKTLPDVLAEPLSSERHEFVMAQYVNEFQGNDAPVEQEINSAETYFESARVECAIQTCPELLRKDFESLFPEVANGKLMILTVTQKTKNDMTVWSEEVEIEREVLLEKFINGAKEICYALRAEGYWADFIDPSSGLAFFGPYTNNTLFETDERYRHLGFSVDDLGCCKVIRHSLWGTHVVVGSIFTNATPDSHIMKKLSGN
UniProt Q99549: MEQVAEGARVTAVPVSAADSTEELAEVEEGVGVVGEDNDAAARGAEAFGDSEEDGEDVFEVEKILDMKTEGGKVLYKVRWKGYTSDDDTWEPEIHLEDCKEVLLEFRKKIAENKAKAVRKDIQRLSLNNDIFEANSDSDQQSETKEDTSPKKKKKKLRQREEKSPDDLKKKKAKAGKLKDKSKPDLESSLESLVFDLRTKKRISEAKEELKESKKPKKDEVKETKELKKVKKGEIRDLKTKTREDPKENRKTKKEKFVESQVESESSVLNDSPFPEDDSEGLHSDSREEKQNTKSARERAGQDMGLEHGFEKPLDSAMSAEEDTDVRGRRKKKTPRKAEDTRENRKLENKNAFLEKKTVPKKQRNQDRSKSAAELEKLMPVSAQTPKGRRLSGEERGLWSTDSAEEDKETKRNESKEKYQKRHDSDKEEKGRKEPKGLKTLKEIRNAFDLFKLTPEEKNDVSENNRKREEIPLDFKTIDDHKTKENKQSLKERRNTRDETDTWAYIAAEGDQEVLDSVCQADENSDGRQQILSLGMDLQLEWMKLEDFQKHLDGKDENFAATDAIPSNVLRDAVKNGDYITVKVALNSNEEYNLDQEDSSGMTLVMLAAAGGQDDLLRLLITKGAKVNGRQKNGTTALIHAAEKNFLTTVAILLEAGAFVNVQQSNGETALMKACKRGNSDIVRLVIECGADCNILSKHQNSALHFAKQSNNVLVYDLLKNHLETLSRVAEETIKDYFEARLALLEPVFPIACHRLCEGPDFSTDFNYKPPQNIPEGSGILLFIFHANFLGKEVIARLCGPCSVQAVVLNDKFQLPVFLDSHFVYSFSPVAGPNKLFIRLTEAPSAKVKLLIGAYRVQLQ
UniProt Q70IA6: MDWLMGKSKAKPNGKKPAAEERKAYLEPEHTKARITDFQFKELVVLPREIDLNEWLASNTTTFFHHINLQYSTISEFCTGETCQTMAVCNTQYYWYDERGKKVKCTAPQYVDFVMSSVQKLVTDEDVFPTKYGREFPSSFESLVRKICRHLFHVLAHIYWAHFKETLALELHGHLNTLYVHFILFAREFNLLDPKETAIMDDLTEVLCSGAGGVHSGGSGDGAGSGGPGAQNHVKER
UniProt O95396: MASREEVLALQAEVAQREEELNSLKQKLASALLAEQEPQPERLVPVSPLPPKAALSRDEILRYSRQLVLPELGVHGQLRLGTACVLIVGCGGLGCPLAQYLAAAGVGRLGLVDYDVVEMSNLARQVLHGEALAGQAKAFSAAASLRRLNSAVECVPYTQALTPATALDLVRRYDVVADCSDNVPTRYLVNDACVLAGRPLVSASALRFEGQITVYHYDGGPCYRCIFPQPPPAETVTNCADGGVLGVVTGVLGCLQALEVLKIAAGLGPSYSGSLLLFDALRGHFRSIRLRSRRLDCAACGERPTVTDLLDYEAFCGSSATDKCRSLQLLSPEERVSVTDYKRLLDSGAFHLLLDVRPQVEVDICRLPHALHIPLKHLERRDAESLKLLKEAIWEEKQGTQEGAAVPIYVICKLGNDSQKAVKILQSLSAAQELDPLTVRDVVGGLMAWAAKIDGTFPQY
UniProt Q86TA1: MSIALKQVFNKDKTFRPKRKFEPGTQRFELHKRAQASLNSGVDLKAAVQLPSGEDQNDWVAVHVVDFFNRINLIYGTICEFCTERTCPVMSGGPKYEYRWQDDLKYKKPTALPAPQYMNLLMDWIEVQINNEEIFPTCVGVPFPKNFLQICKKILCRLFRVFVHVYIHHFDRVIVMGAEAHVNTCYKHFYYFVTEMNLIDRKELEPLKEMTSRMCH
UniProt Q13015: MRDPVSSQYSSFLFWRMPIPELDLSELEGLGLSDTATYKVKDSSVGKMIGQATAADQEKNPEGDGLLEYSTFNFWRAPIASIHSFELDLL
UniProt Q8TDZ2: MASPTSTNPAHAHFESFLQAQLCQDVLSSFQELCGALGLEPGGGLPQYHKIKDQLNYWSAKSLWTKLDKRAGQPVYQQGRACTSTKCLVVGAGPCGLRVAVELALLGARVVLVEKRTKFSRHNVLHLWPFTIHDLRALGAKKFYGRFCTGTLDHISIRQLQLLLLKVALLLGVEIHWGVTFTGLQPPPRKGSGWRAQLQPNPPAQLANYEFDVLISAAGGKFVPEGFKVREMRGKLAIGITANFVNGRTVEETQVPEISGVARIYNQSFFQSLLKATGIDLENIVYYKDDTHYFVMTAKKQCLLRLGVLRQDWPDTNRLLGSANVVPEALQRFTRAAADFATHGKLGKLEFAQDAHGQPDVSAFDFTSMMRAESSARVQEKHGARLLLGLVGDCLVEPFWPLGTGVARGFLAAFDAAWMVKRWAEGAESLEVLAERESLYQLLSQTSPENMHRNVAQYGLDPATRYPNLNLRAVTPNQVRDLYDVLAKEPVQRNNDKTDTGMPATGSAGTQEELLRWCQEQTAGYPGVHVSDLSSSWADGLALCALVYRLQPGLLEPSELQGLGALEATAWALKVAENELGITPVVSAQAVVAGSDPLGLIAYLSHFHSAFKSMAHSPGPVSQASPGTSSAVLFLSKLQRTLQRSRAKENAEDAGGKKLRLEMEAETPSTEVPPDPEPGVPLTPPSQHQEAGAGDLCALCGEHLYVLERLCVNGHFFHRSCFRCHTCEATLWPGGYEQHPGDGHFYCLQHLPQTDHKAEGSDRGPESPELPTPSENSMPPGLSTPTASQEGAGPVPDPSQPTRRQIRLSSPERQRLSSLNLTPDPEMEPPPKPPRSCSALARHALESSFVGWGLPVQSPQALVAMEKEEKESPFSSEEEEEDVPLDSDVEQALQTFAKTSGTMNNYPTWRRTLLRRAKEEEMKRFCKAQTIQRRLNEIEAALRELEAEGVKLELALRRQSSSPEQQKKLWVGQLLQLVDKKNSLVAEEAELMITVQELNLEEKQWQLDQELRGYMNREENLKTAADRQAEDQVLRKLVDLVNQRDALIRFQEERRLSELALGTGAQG

[1] = compound: CC(C)(O)CC(=O)NCCn1ccc2ncnc(Nc3ccc(Oc4cccc(C(F)(F)F)c4)c(Cl)c3)c21
Summary of the method: as §1

[2] = compound: CC(C)C1=C2N=C(C=C(N2N=C1)NCC3=CC=CC=C3)NCCCCCCN
Summary of the method: as §1

pinometostat = compound: CC(C)N(C[C@H]1O[C@@H](n2cnc3c(N)ncnc32)[C@H](O)[C@@H]1O)[C@H]1C[C@@H](CCc2nc3cc(C(C)(C)C)ccc3[nH]2)C1 [pinometostat]
Summary of the method: as §1

[3] = compound: CC1=C(C2=C(C=C1)C(=O)C3=CC=CC=C3N2CCCN)C
Summary of the method: as §1

ibrutinib = compound: C=CC(=O)N1CCC[C@@H](n2nc(-c3ccc(Oc4ccccc4)cc3)c3c(N)ncnc32)C1 [ibrutinib]
Summary of the method: as §1

ralimetinib = compound: CC(C)(C)Cn1c(N)nc2ccc(-c3[nH]c(C(C)(C)C)nc3-c3ccc(F)cc3)nc21 [ralimetinib]
Summary of the method: as §1

[4] = compound: CC(C)C[C@@H](C=O)NC(=O)[C@H](CC(C)C)NC(=O)[C@H](CC(C)C)NC(=O)OCc1ccccc1
Summary of the method: as §1

[5] = compound: CC(=O)c1cnc2ccc(-c3cc(Cl)c(O)c(Cl)c3)nc2c1N[C@H]1CC[C@H](CN(C)C)CC1
Summary of the method: as §1

[6] = compound: CC1=C(C(CC(=O)N1)C2=CC=C(C=C2)C(F)(F)F)C(=O)NC3=C(C=C4C(=C3)C=NN4)F
Summary of the method: as §1

Measured: log2 fold change

MLKL (UniProt Q8NB16)
inactive: IRAK-1-4 Inhibitor I 0.009 | [1] 0.039 | [2] -0.239 | pinometostat -0.037 | [3] 0.229

MLLT10 (UniProt P55197)
inactive: ibrutinib 0.107 | ralimetinib 0.052 | [1] 0.075 | [4] 0.056

MOB3A (UniProt Q96BX8)
inactive: IRAK-1-4 Inhibitor I 0.062 | ibrutinib -0.011 | [5] 0.014 | ralimetinib 0.121 | [2] -0.018 | [4] 0.122 | pinometostat 0.012 | [6] 0.09 | [3] -0.003

MINDY2 (UniProt Q8NBR6)
inactive: [1] 0.029 | [2] -0.033 | [3] 0.001

MMRN1 (UniProt Q13201)
inactive: ralimetinib 0.014 | [4] 0.087

MRNIP (UniProt Q6NTE8)
inactive: IRAK-1-4 Inhibitor I 0.123 | ralimetinib -0.07 | [1] -0.06 | [2] 0.081 | [4] 0.087 | pinometostat 0.111 | [6] 0 | [3] 0.062

Quoted at random: 2 records from the list.
MOB3A (UniProt Q96BX8)
inactive: IRAK-1-4 Inhibitor I 0.062 | ibrutinib -0.011 | [5] 0.014 | ralimetinib 0.121 | [2] -0.018 | [4] 0.122 | pinometostat 0.012 | [6] 0.09 | [3] -0.003

MLLT10 (UniProt P55197)
inactive: ibrutinib 0.107 | ralimetinib 0.052 | [1] 0.075 | [4] 0.056

Next part:

MRFAP1 (UniProt Q9Y605)
inactive: IRAK-1-4 Inhibitor I 0.218 | ibrutinib -0.017 | [5] 0.206 | ralimetinib -0.022 | [2] -0.056 | [4] 0.437 | pinometostat -0.016 | [3] -0.339

MLST8 (UniProt Q9BVC4)
inactive: IRAK-1-4 Inhibitor I 0.002 | ibrutinib -0.048 | [5] 0.099 | [1] -0.049 | [2] -0.136 | pinometostat -0.093 | [3] 0.037

MMADHC (UniProt Q9H3L0)
inactive: IRAK-1-4 Inhibitor I 0.014 | ibrutinib -0.056 | [5] -0.011 | ralimetinib 0.073 | [2] 0.039 | [4] 0.076 | pinometostat 0.182 | [3] -0.137

MPHOSPH8 isoform 2 (UniProt Q99549)
inactive: IRAK-1-4 Inhibitor I -0.149 | [5] 0.026 | ralimetinib 0.271 | [1] -0.06 | [4] 0.035 | pinometostat -0.027
active: [3] -0.84

MOB2 isoform 3 (UniProt Q70IA6)
inactive: ibrutinib -0.061 | ralimetinib 0.039 | [1] -0.15 | [2] -0.01 | [4] -0.021 | [3] 0.106

MOCS3 (UniProt O95396)
inactive: IRAK-1-4 Inhibitor I -0.056 | ibrutinib 0.029 | [5] -0.098 | [1] -0.11 | [2] -0.156 | pinometostat -0.064 | [6] -0.05 | [3] -0.117

MRPL57 (UniProt Q9BQC6)
inactive: ibrutinib -0.057 | [5] 0.134 | [1] 0.015 | [2] -0.043 | [6] -0.028 | [3] -0.112

MOB3B (UniProt Q86TA1)
inactive: IRAK-1-4 Inhibitor I -0.26 | ibrutinib -0.001 | [5] -0.026 | [2] -0.169 | pinometostat -0.056 | [3] 0.024

MLLT11 (UniProt Q13015)
inactive: IRAK-1-4 Inhibitor I 0.173 | ibrutinib -0.068 | ralimetinib -0.204 | [1] -0.245 | [2] -0.149 | [4] -0.174 | pinometostat 0.029 | [6] 0.083 | [3] 0.333

MICAL1 isoform 4 (UniProt Q8TDZ2)
inactive: IRAK-1-4 Inhibitor I -0.111 | [5] 0.261 | ralimetinib -0.247 | [1] -0.291 | [2] -0.167 | [4] -0.004 | pinometostat 0.112 | [6] 0.146
